From publication PMC7349836
No constants are given. Whether binding was seen depends on the method and setting. Binding seen in cells or lysates may run through a third protein. Some binding calls cover weakened binding; strength is not graded here.

By UniProt entry, the sequences of proteins in these tests, tags left out.
UniProt P11798: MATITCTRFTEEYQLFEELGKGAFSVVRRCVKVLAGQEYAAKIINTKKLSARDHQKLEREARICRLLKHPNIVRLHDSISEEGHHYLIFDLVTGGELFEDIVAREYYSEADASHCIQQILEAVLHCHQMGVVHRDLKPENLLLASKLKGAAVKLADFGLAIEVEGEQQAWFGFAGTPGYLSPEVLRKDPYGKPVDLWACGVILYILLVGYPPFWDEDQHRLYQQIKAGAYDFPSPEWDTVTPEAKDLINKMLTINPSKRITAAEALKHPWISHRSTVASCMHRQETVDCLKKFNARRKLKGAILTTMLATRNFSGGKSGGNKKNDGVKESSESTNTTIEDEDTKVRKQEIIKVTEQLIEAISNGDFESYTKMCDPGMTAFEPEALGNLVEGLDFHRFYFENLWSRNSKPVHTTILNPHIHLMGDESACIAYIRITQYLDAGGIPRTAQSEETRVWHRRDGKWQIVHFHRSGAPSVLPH

Biological target: Camk2α, endogenous in cultured mouse hippocampal neurons (mouse (endogenous in hippocampal neurons of C57BL6 mice)) (UniProt P11798)
Assay: proximity ligation; Duolink in cultured mouse hippocampal neurons with mouse anti-Fbp and rabbit anti-Camk2α; control neurons and 10 s after chemical LTP induction

B1: Fbp2, endogenous in cultured mouse hippocampal neurons (enzyme, UniProt P70695 1-339)
chain: MTDRSPFETDMLTLTRYVMEKGRQAKGTGELTQLLNSMLTAIKAISSAVRKAGLANLYGISGSVNVTGDEVKKLDVLSNSLVINMLQSSYSTCVLVSEENKEAVITAQERRGKYVVCFDPLDGSSNIDCLASIGTIFAIYRKTTEDEPSEKDALQPGRNIVAAGYALYGSATLVALSTGQGVDLFMLDPALGEFVLVEKDVRIKKKGKIFSLNEGYAKYFDAATAEYVQKKKFPEDGSEPYGARYVGSMVADVHRTLVYGGIFMYPANQKSPNGKLRLLYECNPVAYIIEQAGGMATTGTQPVLDVKPESIHQRVPLILGSPEDVQEYLSCVQRNQAGR
In the case of B1, the binding is reported as “binds”.
